Measurements: article PMC8403986

Protein sequences, listed by entry. Tags and fused reporters are not part of them. Lines headed by an entry give the natural chain unless they say otherwise; changes in a name come on top.
UniProt O15169: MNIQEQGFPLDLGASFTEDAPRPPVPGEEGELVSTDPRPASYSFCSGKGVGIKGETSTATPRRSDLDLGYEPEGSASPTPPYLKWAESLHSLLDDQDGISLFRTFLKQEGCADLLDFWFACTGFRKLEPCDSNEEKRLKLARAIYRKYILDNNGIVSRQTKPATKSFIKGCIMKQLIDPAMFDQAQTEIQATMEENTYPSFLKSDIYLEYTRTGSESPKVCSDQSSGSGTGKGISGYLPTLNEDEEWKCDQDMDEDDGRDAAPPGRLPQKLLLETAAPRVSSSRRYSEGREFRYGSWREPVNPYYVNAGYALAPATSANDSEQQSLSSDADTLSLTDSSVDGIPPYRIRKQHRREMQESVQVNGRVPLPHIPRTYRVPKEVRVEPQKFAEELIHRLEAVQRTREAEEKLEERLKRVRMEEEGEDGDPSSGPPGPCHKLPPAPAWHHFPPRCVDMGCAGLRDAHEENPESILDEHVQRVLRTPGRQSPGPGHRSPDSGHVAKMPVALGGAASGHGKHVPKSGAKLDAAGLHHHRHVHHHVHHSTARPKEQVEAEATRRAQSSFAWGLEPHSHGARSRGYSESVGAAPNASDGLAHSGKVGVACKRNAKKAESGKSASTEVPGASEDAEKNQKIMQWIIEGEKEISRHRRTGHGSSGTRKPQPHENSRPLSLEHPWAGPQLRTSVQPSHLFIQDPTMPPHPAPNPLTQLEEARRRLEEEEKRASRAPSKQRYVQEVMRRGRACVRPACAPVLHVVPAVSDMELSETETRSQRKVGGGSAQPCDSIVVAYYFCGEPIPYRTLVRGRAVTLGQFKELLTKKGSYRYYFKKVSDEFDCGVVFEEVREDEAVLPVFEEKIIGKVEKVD
UniProt P35222: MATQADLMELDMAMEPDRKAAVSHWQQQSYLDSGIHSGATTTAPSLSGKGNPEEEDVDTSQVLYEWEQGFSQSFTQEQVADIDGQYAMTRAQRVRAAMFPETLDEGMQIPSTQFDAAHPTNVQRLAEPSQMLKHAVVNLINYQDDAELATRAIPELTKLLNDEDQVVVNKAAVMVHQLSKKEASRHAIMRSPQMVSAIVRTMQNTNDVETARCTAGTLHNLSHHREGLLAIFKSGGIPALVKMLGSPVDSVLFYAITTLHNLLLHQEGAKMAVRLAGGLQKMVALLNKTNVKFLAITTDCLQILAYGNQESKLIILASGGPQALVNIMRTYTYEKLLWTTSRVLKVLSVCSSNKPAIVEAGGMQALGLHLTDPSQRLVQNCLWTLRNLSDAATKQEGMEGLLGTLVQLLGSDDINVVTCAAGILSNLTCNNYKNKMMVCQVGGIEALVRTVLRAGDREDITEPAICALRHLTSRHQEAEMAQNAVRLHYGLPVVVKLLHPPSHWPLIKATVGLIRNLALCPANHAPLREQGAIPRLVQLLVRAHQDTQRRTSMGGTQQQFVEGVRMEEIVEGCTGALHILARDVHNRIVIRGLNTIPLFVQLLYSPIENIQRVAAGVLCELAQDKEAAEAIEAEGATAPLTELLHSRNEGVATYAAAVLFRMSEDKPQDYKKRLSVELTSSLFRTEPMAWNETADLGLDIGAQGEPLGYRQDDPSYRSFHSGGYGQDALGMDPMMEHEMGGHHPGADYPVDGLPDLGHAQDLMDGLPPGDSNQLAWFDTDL

Target: AXIN1 M3-dStrepII (polymerization-deficient mutant) (human) (UniProt O15169)
Test: pull-down; Strep-Tactin Sepharose purification via AXIN1-dStrepII (wild type or M3) from lysates of Sf9 cells co-expressing an APC variant, CK1α, GSK3β and β-catenin; 50 mM HEPES-NaOH pH 7.5, 150 mM NaCl, 4°C, 2 h; SDS-PAGE with Coomassie and immunoblot

For “β-catenin, full length, co-expressed in the destruction complex (from UniProt P35222 1-781)”, the binding was “binds”.

No constants are given. Whether binding was seen depends on the method and setting. In cells and extracts the contact can be indirect. A result given as binding can be weak or reduced; the word gives no strength.
